Results taken from publication PMC6440464 (PeerJ, 2019).

Test: Method validation: extraction recovery from rat plasma
Settings: for Extraction recovery (Rset1/Rset2*100), AV: AV of 6 replicates

Q: For `O=C(O)[C@H]1O[C@@H](Oc2c(-c3ccc(O)c(O)c3)oc3cc(O)cc(O)c3c2=O)[C@H](O)[C@@H](O)[C@@H]1O` [QG, Quercetin-3-O-β-D-glucuronide], which “Extraction recovery (Rset1/Rset2*100), AV” value (Conc. 100.00 ng/mL) is on record?
A: 70.18%

Q: What about the “Extraction recovery (Rset1/Rset2*100)” value (Conc. 100.00 ng/mL, single replicates NO.1-NO.6, listed as Quercetin-3-O-β-D-glucuronide (QG)) of the same molecule?
A: 65.43% and 75.16% and 76.07% and 69.65% and 71.01% and 63.74%

Q: And the “Extraction recovery (Rset1/Rset2*100), AV” value (Conc. 1000.00 ng/mL)?
A: 73.51%

Q: And the “Extraction recovery (Rset1/Rset2*100)” value (Conc. 1000.00 ng/mL, single replicates NO.1-NO.6, listed as Quercetin-3-O-β-D-glucuronide (QG))?
A: 80.35% and 65.11% and 70.35% and 79.40% and 73.26% and 72.59%

Q: And the “Extraction recovery (Rset1/Rset2*100), AV” value (Conc. 10000.00 ng/mL)?
A: 69.48%

Q: And the “Extraction recovery (Rset1/Rset2*100)” value (Conc. 10000.00 ng/mL, single replicates NO.1-NO.6, listed as Quercetin-3-O-β-D-glucuronide (QG))?
A: 83.72% and 76.94% and 59.83% and 70.93% and 60.34% and 65.10%

Q: With `O=c1c(O)c(-c2ccc(O)c(O)c2)oc2cc(O)cc(O)c12` [Qr, Quercetin] as the molecule, how does the “Extraction recovery (Rset1/Rset2*100), AV” value (Conc. 65.63 ng/mL) read?
A: 79.20%

Q: And the “Extraction recovery (Rset1/Rset2*100)” value (Conc. 65.63 ng/mL, single replicates NO.1-NO.6, listed as Quercetin (Qr))?
A: 82.83% and 80.22% and 77.19% and 73.51% and 79.07% and 82.36%

Q: And the “Extraction recovery (Rset1/Rset2*100), AV” value (Conc. 525.00 ng/mL)?
A: 71.88%

Q: And the “Extraction recovery (Rset1/Rset2*100)” value (Conc. 525.00 ng/mL, single replicates NO.1-NO.6, listed as Quercetin (Qr))?
A: 81.75% and 73.49% and 74.07% and 72.44% and 62.36% and 67.17%

Q: What about the “Extraction recovery (Rset1/Rset2*100), AV” value (Conc. 8400.00 ng/mL) of the same molecule?
A: 73.31%

Q: What about the “Extraction recovery (Rset1/Rset2*100)” value (Conc. 8400.00 ng/mL, single replicates NO.1-NO.6, listed as Quercetin (Qr)) of the same molecule?
A: 68.64% and 74.73% and 65.53% and 84.38% and 79.64% and 66.95%

Q: For `O=c1c(O[C@@H]2O[C@H](CO)[C@@H](O)[C@H](O)[C@H]2O)c(-c2ccc(O)c(O)c2)oc2cc(O)cc(O)c12` [IQ, Isoquercitrin], which “Extraction recovery (Rset1/Rset2*100), AV” value (Conc. 48.80 ng/mL) is on record?
A: 76.93%

Q: What about the “Extraction recovery (Rset1/Rset2*100)” value (Conc. 48.80 ng/mL, single replicates NO.1-NO.6, listed as Isoquercitrin (IQ)) of the same molecule?
A: 74.09% and 69.32% and 82.26% and 71.70% and 85.51% and 78.67%

Q: And the “Extraction recovery (Rset1/Rset2*100), AV” value (Conc. 244.00 ng/mL)?
A: 75.24%

Q: What about the “Extraction recovery (Rset1/Rset2*100)” value (Conc. 244.00 ng/mL, single replicates NO.1-NO.6, listed as Isoquercitrin (IQ)) of the same molecule?
A: 69.25% and 81.36% and 76.47% and 84.53% and 75.17% and 64.64%

Q: What about the “Extraction recovery (Rset1/Rset2*100), AV” value (Conc. 976.00 ng/mL) of the same molecule?
A: 68.87%

Q: What about the “Extraction recovery (Rset1/Rset2*100)” value (Conc. 976.00 ng/mL, single replicates NO.1-NO.6, listed as Isoquercitrin (IQ)) of the same molecule?
A: 74.32% and 72.65% and 68.53% and 80.29% and 57.42% and 60.03%

Where “and” joins values, the source holds several entries; their conditions need not be identical. Equal entries are not always repeated.
